Laboratory results taken from publication PMC5707354.
For some assays here: The comparison behind a weaker result is the experiment's own reference, which may not be listed here. For some assays here: For at least one entry, the source does not settle the construct or the ends of the probe.

Chains of the proteins cited; added tags and fusions are not shown. Chains listed by the source or under a name are the forms on record and can include a tag or linker.
CBD (Human), one chain, as listed by the source: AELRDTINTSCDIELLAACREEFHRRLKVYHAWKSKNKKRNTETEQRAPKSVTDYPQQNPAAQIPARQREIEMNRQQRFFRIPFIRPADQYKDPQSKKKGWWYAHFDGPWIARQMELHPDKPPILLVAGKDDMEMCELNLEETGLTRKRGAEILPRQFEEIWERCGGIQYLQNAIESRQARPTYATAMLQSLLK
CCBD deltaSiteC T1205A,R1206A,K1207A,R1208A (Human), one chain, as listed by the source T1205A R1206A K1207A R1208A: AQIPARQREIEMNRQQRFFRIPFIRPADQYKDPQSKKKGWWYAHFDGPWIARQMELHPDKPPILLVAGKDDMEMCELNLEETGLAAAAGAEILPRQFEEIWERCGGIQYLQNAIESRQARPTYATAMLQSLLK
NCBD (Human), one chain, as listed by the source: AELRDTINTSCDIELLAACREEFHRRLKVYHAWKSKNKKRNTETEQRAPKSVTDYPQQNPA
CBD deltaSiteA K1093A,K1095A,K1097N,K1098N (Human), one chain, as listed by the source K1093A K1095A K1097N K1098N: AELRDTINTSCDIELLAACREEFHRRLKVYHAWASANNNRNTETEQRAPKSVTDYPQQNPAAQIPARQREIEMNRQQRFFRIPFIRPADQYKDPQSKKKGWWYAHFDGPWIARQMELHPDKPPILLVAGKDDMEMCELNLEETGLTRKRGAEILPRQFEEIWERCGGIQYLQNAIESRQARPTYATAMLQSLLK

Key:
CBD (Human) = test: competition with a labelled probe; settings: DNA (20 uM) sequesters CBD from His-NMVITAIL in pull-down; recombinant protein; residues 1060-1253; protein details: His-tag (pET28)
[1] = system: CBD deltaSiteA K1093A,K1095A,K1097N,K1098N (Human); test: fluorescence anisotropy; settings: FAM-DNA 50 nM; assay buffer; recombinant protein; protein details: His-tag (pET28); label: 3' FAM on strand A
[2] = system: CCBD deltaSiteC T1205A,R1206A,K1207A,R1208A (Human); test: fluorescence anisotropy; settings: FAM-DNA 50 nM; assay buffer; recombinant protein; protein details: His-tag (pET28); label: 3' FAM on strand A
NCBD (Human) = test: fluorescence anisotropy; settings: FAM-DNA 50 nM; assay buffer; recombinant protein; residues 1060-1120; protein details: His-tag (pET28); label: 3' FAM on strand A
NMVITAIL (Human) = test: fluorescence anisotropy; settings: FAM-DNA 50 nM; assay buffer; recombinant protein; residues 814-1060; protein details: His-tag (pET151), TEV-cleaved; label: 3' FAM on strand A

Sequence	binding result (CBD (Human))	binding result [1]	binding result [2]	binding result (NCBD (Human))	binding result (NMVITAIL (Human))
TTAGTTGTTCGTAGTGCTCGTCTGGCTCTGGATTACCCGC (double strand) [40 bp DNA (unlabelled competitor)]	binds				
TTAGTTGTTCGTAGTGCTCGTCTGGCTCTGGATTACCCGC (double strand) [ds40]		binds more weakly	binds more weakly	binds more weakly	binds more weakly
